Results deposited as PubChem BioAssay AID652259 (Drosophila RNAi Screening Center, 2013).
Purpose: 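Identify new Wingless signalling regulators in fly cells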 (primary screen). Cells: Drosophila clone 8 imaginal disc epithelial cells. Knock-down reagent: long dsRNA against Drosophila genes. Treatment: pathway stimulated by co-transfected Wingless expression plasmid. Detection: 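Firefly luciferase from a tcf-site Wingless reporter, measured alongside co-transfected Renilla luciferase that tracks transfection; pathway stimulated by a Wingless plasmid; the firefly-to-Renilla ratio is not deposited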. Reading the numbers: firefly reporter light: higher = more Wg reporter light, before normalisation; Renilla control light: higher = more transfected or surviving cells. Call rule: 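a knock-down is a candidate when at least two out of four statistical tests show it departing from its plate mean; one test alone signals a weak candidate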. Meaning of the calls: active = candidate regulator (raises or lowers reporter); inactive = not a candidate.
The deposit covers about 22,000 reagents; this is an unselected part of those that have a named target and a result. Over the whole deposit, 233 (1.1%) were called active. 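Light values are raw, unnormalised plate reads; the ratio scores behind the reporter calls were not deposited.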 Reagents against one gene are numbered here. Not given: the amount of reagent, the time to read-out, the dose of the treatment.

gene | reagent | firefly reporter light, replicate 1 | firefly reporter light, replicate 2 | Renilla control light, replicate 1 | Renilla control light, replicate 2 | Call
GstE14 | 1 | 7210 | – | 2742 | – | inactive
Elba2 | 1 | 9664 | – | 3401 | – | inactive
CG33679 | 1 | 21430 | – | 13155 | – | inactive
CG14634 | 1 | 16436 | – | 13811 | – | inactive
Tektin-C | 1 | 2585 | 10912 | 1236 | 3510 | inactive
CG12538 | 1 | 14058 | – | 1952 | – | inactive
CG17221 | 1 | 3388 | 6193 | 919 | 2268 | inactive
CG14960 | 1 | 5272 | – | 1976 | – | inactive
CG7488 | 1 | 12711 | – | 2960 | – | inactive
CG14882 | 1 | 1964 | 5409 | 1097 | 1866 | inactive
Cyp6a2 | 1 | 3062 | 11177 | 387 | 3345 | inactive
edin | 1 | 4183 | – | 1786 | – | inactive
Cipc | 1 | 2066 | 4474 | 965 | 2154 | inactive
Cipc | 2 | 21112 | – | 13416 | – | inactive
tra2 | 1 | 15220 | – | 3564 | – | inactive
LSm1 | 1 | 4125 | 10534 | 1337 | 4176 | inactive
Ubqn | 1 | 3776 | 8667 | 1078 | 2104 | inactive
Pgant8 | 1 | 4088 | – | 1961 | – | inactive
AP-2sigma | 1 | 38292 | – | 6880 | – | inactive
Mau2 | 1 | 3043 | – | 1478 | – | inactive
Elp2 | 1 | 6352 | – | 2071 | – | inactive
CG2246 | 1 | 3126 | 6681 | 1506 | 3681 | inactive
CG10911 | 1 | 7160 | – | 2507 | – | inactive
CG17715 | 1 | 18795 | – | 5817 | – | inactive
Qtzl | 1 | 22152 | – | 12323 | – | inactive
lncRNA:CR43434 | 1 | 3168 | – | 1106 | – | inactive
CG7379 | 1 | 3419 | 7882 | 1818 | 2636 | inactive
Rh3 | 1 | 2449 | 8203 | 982 | 1940 | inactive
CG11069 | 1 | 2352 | 5096 | 1027 | 1192 | inactive

Not a retest: entries from further up.
gene | reagent | firefly reporter light, replicate 1 | firefly reporter light, replicate 2 | Renilla control light, replicate 1 | Renilla control light, replicate 2 | Call
lncRNA:CR43434 | 1 | 3168 | – | 1106 | – | inactive
CG7379 | 1 | 3419 | 7882 | 1818 | 2636 | inactive
Rh3 | 1 | 2449 | 8203 | 982 | 1940 | inactive
